# The list is a part of this screen's results and no random one: it is rich in T/C values a quarter to a half above the control, in often repeated tests (any T/C) and in doses without a T/C. Other doses and runs of a compound stand elsewhere. T/C gives the treated animals as a percentage of the vehicle group. Some entries give survivors of the animals treated and no T/C: the source holds a T/C of zero for them, seemingly a mark for toxic or unscored doses. Some doses without a T/C left all or most animals alive at the check, yet need not have been tolerated: the source hardly ever lists a survival T/C far under the control, and the zero likely stands for such cases as well. Survivors were counted at the toxicity check, usually on the fifth day, unless a day is given; later deaths do not show. Schedules are NCI's codes, taken here to give the interval after Q, in days (D) or hours (H), and the number of doses after X. Some entries hold several experiments; the results are listed from low to high. Where survival is the endpoint, the PubChem record calls one and a half times the control and up active, and a quarter to a half above the control has no call in these data; cut-offs in other NCI protocols can differ. Some T/C values are followed by the survivors on the day toxicity was checked, most often the fifth; where none is given, no animal had died by that day.
# Test system: BDF1 mice, B16 melanoma ip, median survival T/C
# Assay: NCI In Vivo Anticancer Drug Screen. Data for tumor model B16 Melanoma (intraperitoneal) in B6D2F1 (BDF1) mice
# Settings: T/C endpoint: median survival time, higher T/C = longer survival
# Method in brief: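 Mice with transplantable tumors; drug vs vehicle groups; endpoint survival or tumor size; value = T/C.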
# [1] = dose: 10.0 mg/kg/injection, schedule: Q01DX009 (ip), vehicle: Klucel (hydroxypropylcellulose) (HPC)
# [2] = dose: 20.0 mg/kg/injection, schedule: Q01DX009 (ip), vehicle: Klucel (hydroxypropylcellulose) (HPC)
# [3] = dose: 40.0 mg/kg/injection, schedule: Q01DX009 (ip), vehicle: Klucel (hydroxypropylcellulose) (HPC)
# [4] = dose: 640.0 mg/kg/injection, schedule: Q04DX003 (ip), vehicle: Klucel (hydroxypropylcellulose) (HPC)
# [5] = dose: 1.0 mg/kg/injection, schedule: Q01DX009 (ip), vehicle: saline
# [6] = dose: 50.0 mg/kg/injection, schedule: Q01DX009 (ip), vehicle: saline with Tween-80
# [7] = dose: 100.0 mg/kg/injection, schedule: Q01DX009 (ip), vehicle: saline with Tween-80
# [8] = dose: 200.0 mg/kg/injection, schedule: Q01DX009 (ip), vehicle: saline
# [9] = dose: 100.0 mg/kg/injection, schedule: Q01DX009 (ip), vehicle: saline
# [10] = dose: 200.0 mg/kg/injection, schedule: Q01DX009 (ip), vehicle: saline with Tween-80
# [11] = dose: 50.0 mg/kg/injection, schedule: Q01DX009 (ip), vehicle: saline
structure (smiles),measurement,setting,value
[Cl][Pt+2][Cl].[NH-]C1CCCC1.[NH-]C1CCCC1,T/C,[1],130 % of control
same,survivor count,[1],7 of 10
same,T/C,[2],"104, 112, 130 % of control"
same,survivor count,[2],10 of 10
same,T/C,[3],102 and 130 % of control
same,survivor count,[3],3 of 10 and 10 of 10
same,T/C,"dose: 40.0 mg/kg/injection, schedule: Q01DX009 (ip), vehicle: saline",147 % of control
same,survivor count,"dose: 40.0 mg/kg/injection, schedule: Q04DX003 (ip), vehicle: Klucel (hydroxypropylcellulose) (HPC)",9 of 10
same,survivor count,"dose: 80.0 mg/kg/injection, schedule: Q01DX009 (ip), vehicle: Klucel (hydroxypropylcellulose) (HPC)",1 of 10 and 10 of 10
same,T/C,"dose: 80.0 mg/kg/injection, schedule: Q01DX009 (ip), vehicle: saline",140 % of control
same,survivor count,"dose: 80.0 mg/kg/injection, schedule: Q04DX003 (ip), vehicle: Klucel (hydroxypropylcellulose) (HPC)",10 of 10
same,T/C,"dose: 80.0 mg/kg/injection, schedule: Q04DX003 (ip), vehicle: saline",130 % of control
same,survivor count,"dose: 100.0 mg/kg/injection, schedule: Q01DX009 (ip), vehicle: olive oil, sesame oil, peanut oil",6 of 6
same,T/C,"dose: 160.0 mg/kg/injection, schedule: Q01DX001 (ip), vehicle: saline",131 % of control
same,survivor count,"dose: 160.0 mg/kg/injection, schedule: Q01DX009 (ip), vehicle: Klucel (hydroxypropylcellulose) (HPC)",2 of 10 and 9 of 10
same,survivor count,"dose: 160.0 mg/kg/injection, schedule: Q01DX009 (ip), vehicle: saline with Tween-80",10 of 10
same,survivor count,"dose: 160.0 mg/kg/injection, schedule: Q04DX003 (ip), vehicle: Klucel (hydroxypropylcellulose) (HPC)",7 of 10
same,T/C,"dose: 160.0 mg/kg/injection, schedule: Q04DX003 (ip), vehicle: saline",126 % of control
same,T/C,"dose: 320.0 mg/kg/injection, schedule: Q01DX001 (ip), vehicle: saline",136 % of control
same,survivor count,"dose: 320.0 mg/kg/injection, schedule: Q01DX009 (ip), vehicle: Klucel (hydroxypropylcellulose) (HPC)",3 of 10 and 9 of 10
same,survivor count,"dose: 320.0 mg/kg/injection, schedule: Q04DX003 (ip), vehicle: Klucel (hydroxypropylcellulose) (HPC)",10 of 10
same,T/C,"dose: 320.0 mg/kg/injection, schedule: Q04DX003 (ip), vehicle: saline",125 % of control
same,T/C,"dose: 640.0 mg/kg/injection, schedule: Q01DX001 (ip), vehicle: Klucel (hydroxypropylcellulose) (HPC)",130 % of control [9 of 10 alive]
same,T/C,"dose: 640.0 mg/kg/injection, schedule: Q01DX001 (ip), vehicle: saline",135 % of control
same,T/C,[4],126 % of control
same,survivor count,[4],9 of 10
same,T/C,"dose: 1280.0 mg/kg/injection, schedule: Q01DX001 (ip), vehicle: Klucel (hydroxypropylcellulose) (HPC)",140 % of control
same,T/C,"dose: 1280.0 mg/kg/injection, schedule: Q01DX001 (ip), vehicle: saline",131 % of control
O[C@H](CN1CC1)[C@@H](O)CN1CC1,survivor count,[5],10 of 10
same,survivor count,"dose: 2.0 mg/kg/injection, schedule: Q01DX009 (ip), vehicle: saline",10 of 10
N=c1c2ncn(Cc3cccc(C(F)(F)F)c3)c2ncn1O,survivor count,"dose: 3.12 mg/kg/injection, schedule: Q01DX009 (ip), vehicle: Klucel (hydroxypropylcellulose) (HPC)",7 of 10
C=C(C)/C([O-])=N/[N+](C)(C)CC(O)CCCCCCCCCCCC (stereo not drawn),survivor count,"dose: 100.0 mg/kg/injection, schedule: Q01DX001 (ip), vehicle: saline",10 of 10
same,survivor count,"dose: 200.0 mg/kg/injection, schedule: Q01DX001 (ip), vehicle: saline",10 of 10
same,survivor count,"dose: 400.0 mg/kg/injection, schedule: Q01DX001 (ip), vehicle: saline",3 of 10
same,survivor count,"dose: 800.0 mg/kg/injection, schedule: Q01DX001 (ip), vehicle: saline",0 of 10
CCS(=O)(=O)Nc1cccc(Nc2c3cccc(C)c3nc3c(C)cccc23)c1OC,survivor count,[6],10 of 10
same,survivor count,[7],10 of 10
Cc1cc(C)c([I+]c2c(C)cc(C)cc2C)c(C)c1,survivor count,"dose: 12.0 mg/kg/injection, schedule: Q01DX009 (ip), vehicle: Klucel (hydroxypropylcellulose) (HPC)",7 of 10
C/C=C(/C#N)c1ccccc1,survivor count,"dose: 200.0 mg/kg/injection, schedule: Q04DX003 (ip), vehicle: saline with Tween-80",1 of 10
OC(c1ccccc1)(c1ccccc1)C1CC1c1ccncc1 (stereo not drawn),survivor count,[8],0 of 10
COC(=O)C(N)Cc1ccc(O)c(O)c1 (stereo not drawn),T/C,"dose: 400.0 mg/kg/injection, schedule: Q08HX018 (ip), vehicle: water",131 % of control
same,survivor count,"dose: 600.0 mg/kg/injection, schedule: Q01DX012 (ip), vehicle: saline",5 of 10
same,T/C,"dose: 600.0 mg/kg/injection, schedule: Q01DX014 (ip), vehicle: saline",146 % of control [8 of 10 alive]
same,survivor count,"dose: 800.0 mg/kg/injection, schedule: Q08HX018 (ip), vehicle: water",4 of 10
same,survivor count,"dose: 800.0 mg/kg/injection, schedule: Q08HX030 (ip), vehicle: saline",2 of 10
same,survivor count,"dose: 1600.0 mg/kg/injection, schedule: Q08HX018 (ip), vehicle: water",0 of 10
COc1ccccc1N1C(N)=NC(N)=NC1(C)C,survivor count,[9],4 of 10
CC(C)N(CCCO)C(C)C,survivor count,[10],6 of 10
O=C(C1CO1)C(Cl)(Cl)Cl (stereo not drawn),survivor count,[11],5 of 10
same,survivor count,[9],1 of 10
same,survivor count,[8],1 of 10
CC(=O)SCC(C)CCl (stereo not drawn),survivor count,[10],8 of 10
Cn1cnc([N+](=O)[O-])c1Sc1nc(N)nc2c1ncn2C1OC(CO)C(O)C1O (stereo not drawn),T/C,"dose: 6.25 mg/kg/injection, schedule: Q01DX009 (ip), vehicle: suspension in saline",125 % of control
same,survivor count,"dose: 25.0 mg/kg/injection, schedule: Q01DX009 (ip), vehicle: saline with Tween-80",10 of 10
same,survivor count,"dose: 25.0 mg/kg/injection, schedule: Q01DX009 (ip), vehicle: suspension in saline",10 of 10
same,survivor count,[6],10 of 10
same,survivor count,"dose: 50.0 mg/kg/injection, schedule: Q01DX009 (ip), vehicle: suspension in saline",10 of 10
same,survivor count,[7],10 of 10
Cc1cc([N+](=O)[O-])cc(C)c1OC(=O)c1ccc(N=C(N)N)cc1,survivor count,"dose: 100.0 mg/kg/injection, schedule: Q01DX009 (ip), vehicle: Klucel (hydroxypropylcellulose) (HPC)",1 of 10
CN1CCC(OC2c3ccccc3CCc3ccccc32)CC1,survivor count,[11],6 of 10
CN(C)N=Nc1cn[nH]c1C(N)=O,survivor count,"dose: 400.0 mg/kg/injection, schedule: Q01DX009 (ip), vehicle: Klucel (hydroxypropylcellulose) (HPC)",10 of 10
Cc1ccc(NC(=O)N(CCCl)N=O)cc1C,survivor count,"dose: 12.5 mg/kg/injection, schedule: Q01DX009 (ip), vehicle: Klucel (hydroxypropylcellulose) (HPC)",10 of 10
same,survivor count,"dose: 25.0 mg/kg/injection, schedule: Q01DX009 (ip), vehicle: Klucel (hydroxypropylcellulose) (HPC)",10 of 10
same,survivor count,"dose: 50.0 mg/kg/injection, schedule: Q01DX009 (ip), vehicle: Klucel (hydroxypropylcellulose) (HPC)",9 of 10
CC(=O)C1=C(O)C2C3c4c[nH]c5cccc(c45)CC3C(C)(C)N2C1=O (stereo not drawn),T/C,[5],126 % of control
Nc1ncnc2c1ncn2C1OC(COP(=O)(O)O)C(O)C1O (stereo not drawn),T/C,"dose: 25.0 mg/kg/injection, schedule: Q01DX009 (ip), vehicle: saline",131 % of control
same,T/C,[8],125 % of control [9 of 10 alive]
same,T/C,"dose: 400.0 mg/kg/injection, schedule: Q01DX009 (ip), vehicle: saline",130 % of control

# Source: PubChem BioAssay AID192 (DTP/NCI, 2004)
